Laboratory results: PubChem BioAssay AID504774 (Drosophila RNAi Screening Center, 2011)
Test: 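Knock-downs that shift viability of MMS-exposed cells relative to untreated ones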 (primary screen). Cell system: Drosophila Kc167 cells. Reagent: long dsRNA against Drosophila genes, about 0.25 µg dsRNA per well. Duration: about 6 days: 3 days knock-down, then 3 days with or without MMS. Conditions: methyl methanesulphonate 0.004% (w/v) for 3 days after knock-down. Measured: 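Viability in wells given MMS, read as ATP luminescence, normalised by quantiles plate by plate and averaged across replicates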. Reading the numbers: mean viability with MMS and viability with MMS: higher = more surviving cells after MMS.
In all, the deposit lists about 23,000 reagents; below is an unselected part of those that have a named target and a result. 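Values are quantile-normalised luminescence on an arbitrary scale; higher means more cells surviving MMS.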 A plus sign joins genes that one reagent is predicted to hit. Further read-outs or replicates are left out here. Reagent sequences are not shown.

gene | dsRNA | mean viability with MMS | viability with MMS, replicate 1
CG14190 | DRSC19545 | 3.66e6 | 4.16e6
CG31647 (retired record) | DRSC21903 | 3.54e6 | 4.00e6
Prosalpha7 | DRSC07516 | 3.14e6 | 3.68e6
Sym | DRSC12301 | 3.48e6 | 3.92e6
CG13186 | DRSC06311 | 3.48e6 | 3.98e6
CG18417 | DRSC10319 | 3.66e6 | 4.09e6
sli | DRSC07684 | 3.53e6 | 4.02e6
CG14641 | DRSC12227 | 3.30e6 | 3.69e6
CG14427 | DRSC17921 | 3.61e6 | 4.10e6
TfIIA-S | DRSC16883 | 3.65e6 | 4.08e6
Eglp2 | DRSC04294 | 3.62e6 | 4.17e6
CG31087 | DRSC14253 | 3.36e6 | 3.76e6
CG31533 | DRSC13018 | 3.48e6 | 3.94e6
CG9577 | DRSC20693 | 3.59e6 | 4.06e6
CG12253 | DRSC02153 | 3.69e6 | 4.09e6
CG9287 | DRSC03186 | 3.60e6 | 4.15e6
CG9287 | DRSC22790 | 3.35e6 | 3.92e6
SP | DRSC09664 | 3.61e6 | 4.06e6
CG5342 | DRSC15776 | 3.69e6 | 4.17e6
CG17568 | DRSC02628 | 3.73e6 | 3.86e6
rgn | DRSC11609 | 3.37e6 | 3.84e6
Arpc2 | DRSC02113 | 3.44e6 | 3.99e6
Taf13 | DRSC02106 | 3.51e6 | 3.88e6
Ccdc39 | DRSC12286 | 3.50e6 | 3.87e6
Atac3 | DRSC08579 | 3.80e6 | 4.30e6
CG34235 + CG30058 + CG34312 | DRSC22142 | 3.61e6 | 4.05e6
CG7737 | DRSC07033 | 3.60e6 | 4.09e6
THADA | DRSC19675 | 3.61e6 | 4.09e6
HLH3B | DRSC18669 | 3.55e6 | 4.22e6
CG9395 | DRSC03218 | 3.49e6 | 3.96e6
shv | DRSC00640 | 3.60e6 | 4.08e6
shv | DRSC22122 | 3.51e6 | 3.92e6
CG6610 | DRSC10674 | 3.66e6 | 4.30e6
MED17 | DRSC16889 | 3.22e6 | 3.71e6
Tsp42Eg | DRSC06112 | 3.66e6 | 4.02e6
Taf7 | DRSC15445 | 3.36e6 | 3.88e6
disp | DRSC12376 | 3.49e6 | 3.97e6
CG10749 | DRSC09798 | 3.62e6 | 4.15e6
CG13217 | DRSC06339 | 3.24e6 | 2.99e6
Tsp42Ek | DRSC06187 | 3.68e6 | 4.14e6
sle | DRSC14557 | 3.59e6 | 4.13e6
tef | DRSC07301 | 3.49e6 | 3.94e6
tef | DRSC22041 | 3.73e6 | 4.19e6
CG40551 (retired record) | DRSC21229 | 3.67e6 | 4.08e6
CG15635 | DRSC00470 | 3.62e6 | 3.92e6
CG15635 | DRSC22873 | 3.17e6 | 3.77e6
NPFR | DRSC12173 | 3.55e6 | 4.06e6
Tsp5D | DRSC18380 | 3.55e6 | 4.11e6
CG16775 | DRSC10225 | 3.47e6 | 3.90e6
CG33322 | DRSC03204 | 3.54e6 | 4.03e6
CG1344 | DRSC04837 | 3.36e6 | 3.85e6
CG43328 | DRSC05640 | 3.53e6 | 4.10e6
asRNA:CR42743 + CG34162 | DRSC01190 | 3.56e6 | 4.07e6
CG9084 | DRSC07335 | 3.48e6 | 3.92e6
CG15282 | DRSC22620 | 3.60e6 | 4.07e6
CG15282 | DRSC23090 | 3.34e6 | 3.65e6
RhoGAP15B | DRSC19924 | 3.72e6 | 4.27e6
RhoGAP15B | DRSC19925 | 3.48e6 | 3.99e6
Mob2 | DRSC09117 | 3.22e6 | 3.68e6
Mob2 | DRSC09119 | 3.54e6 | 4.02e6
Mob2 | DRSC09856 | 3.43e6 | 3.86e6
Mob2 | DRSC23274 | 3.60e6 | 4.03e6
ppk27 | DRSC08168 | 3.60e6 | 4.01e6
ppk27 | DRSC22211 | 3.46e6 | 3.83e6
Gdi | DRSC03330 | 3.69e6 | 4.10e6
CG1889 | DRSC18195 | 3.54e6 | 4.05e6
AOX3 | DRSC15955 | 3.44e6 | 3.96e6
CG30356 | DRSC05119 | 3.55e6 | 3.98e6
CG15771 | DRSC18077 | 3.47e6 | 4.06e6
Rlip | DRSC16828 | 3.52e6 | 3.99e6
CG1544 | DRSC15036 | 3.39e6 | 3.90e6
MTA1-like | DRSC12382 | 3.38e6 | 3.84e6
MTA1-like | DRSC22022 | 3.55e6 | 4.06e6
Syx5 | DRSC03432 | 3.30e6 | 3.69e6
Ama | DRSC12489 | 3.54e6 | 4.07e6
CG7408 | DRSC10841 | 3.59e6 | 4.09e6
CG15225 | DRSC04232 | 3.54e6 | 4.01e6
CG15225 | DRSC23269 | 3.67e6 | 4.16e6
Pen | DRSC03396 | 3.57e6 | 4.06e6
Targ | DRSC06206 | 3.64e6 | 4.24e6
Lamtor5 | DRSC18491 | 3.46e6 | 3.98e6
Rad23 | DRSC17167 | 3.46e6 | 4.06e6
CG14957 | DRSC08416 | 3.51e6 | 3.92e6
ATPCL | DRSC05913 | 3.78e6 | 4.21e6
BomS6 | DRSC21676 | 3.70e6 | 4.12e6
CheB98a | DRSC14882 | 3.56e6 | 4.01e6
CG11768 | DRSC14377 | 3.25e6 | 3.74e6
CG11768 | DRSC23219 | 3.44e6 | 3.87e6
